{"source": "PubChem BioAssay AID192", "about": "(DTP/NCI, 2004)", "test_system": "BDF1 mice, B16 melanoma ip, median survival T/C", "assay": "NCI In Vivo Anticancer Drug Screen. Data for tumor model B16 Melanoma (intraperitoneal) in B6D2F1 (BDF1) mice", "conditions": "T/C endpoint: median survival time, higher T/C = longer survival", "outline": "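Compounds were tested in mice carrying transplantable tumors. Survival or tumor size was recorded, and each value is the treated-group measurement (T) divided by that of the vehicle-treated control group (C).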", "key": {"[1]": {"conditions": "dose: 400.0 mg/kg/injection, schedule: Q01DX001 (ip), vehicle: water"}}, "note": "The list does not hold the whole screen: it gathers tests that were run many times, whatever their T/C, doses with no T/C, and many T/C values between a quarter and a half above the control. Further doses and runs are listed elsewhere. T/C gives the treated animals as a percentage of the vehicle group. Some doses have a count of surviving animals in place of a T/C: the source holds a T/C of zero for them, seemingly a mark for toxic or unscored doses. Some doses without a T/C left all or most animals alive at the check, yet need not have been tolerated: the source hardly ever lists a survival T/C far under the control, and the zero likely stands for such cases as well. Survivors were counted at the toxicity check, usually on the fifth day, unless a day is given; later deaths do not show. Schedules are NCI's codes, taken here to give the interval after Q, in days (D) or hours (H), and the number of doses after X. Some entries were tested several times; the values are given in rising order. Where survival is the endpoint, this PubChem deposit counts one and a half times the control or more as active, and values a quarter to a half above the control carry no call in these data; other NCI protocols may use other cut-offs. Some T/C values are followed by the survivors on the day toxicity was checked, most often the fifth; where none is given, no animal had died by that day.", "data": [{"smiles": "CCC1(O)CC2CN(CCc3c([nH]c4ccccc34)C(C(=O)OC)(c3cc4c(cc3OC)N(C)C3C(O)(C(N)=O)C(O)C5(CC)C=CCN6CCC43C65)C2)C1", "note": "(stereo not drawn) (tested in a mixture with another compound)", "values": [{"measurement": "T/C", "setting": "dose: 0.07 mg/kg/injection, schedule: Q04DX003 (ip), vehicle: saline", "value": "149 % of control"}, {"measurement": "T/C", "setting": "dose: 0.11 mg/kg/injection, schedule: Q04DX003 (ip), vehicle: saline", "value": "147 % of control [9 of 10 alive]"}, {"measurement": "T/C", "setting": "dose: 0.13 mg/kg/injection, schedule: Q01DX009 (ip), vehicle: water", "value": "131 % of control [9 of 10 alive]"}, {"measurement": "T/C", "setting": "dose: 0.22 mg/kg/injection, schedule: Q01DX009 (ip), vehicle: water", "value": "139 % of control"}, {"measurement": "T/C", "setting": "dose: 0.52 mg/kg/injection, schedule: Q04DX003 (ip), vehicle: water", "value": "142 % of control"}, {"measurement": "survivor count", "setting": "dose: 0.6 mg/kg/injection, schedule: Q01DX009 (ip), vehicle: water", "value": "10 of 10"}, {"measurement": "survivor count", "setting": "dose: 1.0 mg/kg/injection, schedule: Q01DX009 (ip), vehicle: water", "value": "5 of 10 and 9 of 10"}, {"measurement": "T/C", "setting": "dose: 1.0 mg/kg/injection, schedule: Q04DX003 (ip), vehicle: saline", "value": "129 % of control"}, {"measurement": "T/C", "setting": "dose: 1.0 mg/kg/injection, schedule: Q04DX003 (ip), vehicle: water", "value": "138 % of control"}, {"measurement": "T/C", "setting": "dose: 1.04 mg/kg/injection, schedule: Q01DX001 (ip), vehicle: water", "value": "145 % of control"}, {"measurement": "T/C", "setting": "dose: 1.67 mg/kg/injection, schedule: Q04DX003 (ip), vehicle: saline", "value": "125 % of control"}, {"measurement": "T/C", "setting": "dose: 1.73 mg/kg/injection, schedule: Q01DX001 (ip), vehicle: water", "value": "142 % of control"}, {"measurement": "T/C", "setting": "dose: 2.0 mg/kg/injection, schedule: Q04DX003 (ip), vehicle: water", "value": "145 % of control"}, {"measurement": "survivor count", "setting": "dose: 2.4 mg/kg/injection, schedule: Q04DX003 (ip), vehicle: water", "value": "10 of 10"}, {"measurement": "survivor count", "setting": "dose: 2.78 mg/kg/injection, schedule: Q04DX003 (ip), vehicle: saline", "value": "9 of 10"}, {"measurement": "T/C", "setting": "dose: 2.9 mg/kg/injection, schedule: Q01DX001 (ip), vehicle: water", "value": "147 % of control"}, {"measurement": "survivor count", "setting": "dose: 3.0 mg/kg/injection, schedule: Q04DX003 (ip), vehicle: saline", "value": "4 of 10"}, {"measurement": "survivor count", "setting": "dose: 4.0 mg/kg/injection, schedule: Q04DX003 (ip), vehicle: water", "value": "2 of 10 and 10 of 10"}, {"measurement": "survivor count", "setting": "dose: 4.63 mg/kg/injection, schedule: Q04DX003 (ip), vehicle: saline", "value": "9 of 10"}, {"measurement": "T/C", "setting": "dose: 8.0 mg/kg/injection, schedule: Q01DX001 (ip), vehicle: water", "value": "147 % of control"}, {"measurement": "T/C", "setting": "dose: 22.0 micrograms/kg/injection, schedule: Q01DX009 (ip), vehicle: saline", "value": "129 % of control"}, {"measurement": "T/C", "setting": "dose: 36.0 micrograms/kg/injection, schedule: Q01DX009 (ip), vehicle: saline", "value": "142 % of control"}, {"measurement": "T/C", "setting": "dose: 130.0 micrograms/kg/injection, schedule: Q01DX009 (ip), vehicle: saline", "value": "143 % of control [9 of 10 alive]"}, {"measurement": "T/C", "setting": "dose: 130.0 micrograms/kg/injection, schedule: Q01DX009 (ip), vehicle: water", "value": "135 % of control"}, {"measurement": "T/C", "setting": "dose: 360.0 micrograms/kg/injection, schedule: Q01DX009 (ip), vehicle: water", "value": "145 % of control"}, {"measurement": "T/C", "setting": "dose: 389.0 micrograms/kg/injection, schedule: Q04DX003 (ip), vehicle: saline", "value": "136 % of control"}, {"measurement": "T/C", "setting": "dose: 600.0 micrograms/kg/injection, schedule: Q01DX009 (ip), vehicle: water", "value": "140 % of control"}, {"measurement": "T/C", "setting": "dose: 648.0 micrograms/kg/injection, schedule: Q04DX003 (ip), vehicle: saline", "value": "142 % of control"}, {"measurement": "survivor count", "setting": "dose: 1000.0 micrograms/kg/injection, schedule: Q01DX009 (ip), vehicle: saline", "value": "8 of 10"}, {"measurement": "survivor count", "setting": "dose: 1000.0 micrograms/kg/injection, schedule: Q01DX009 (ip), vehicle: water", "value": "10 of 10"}]}, {"smiles": "COC1CC(C)C(OC)C2=CC(=O)C=C(NC(=O)/C(C)=C/C=C\\C(C)C(OC(N)=O)/C(C)=C\\C(C)C1OC)C2=O", "note": "(stereo not drawn)", "values": [{"measurement": "survivor count", "setting": "dose: 20.0 mg/kg/injection, schedule: Q01DX009 (ip), vehicle: saline + alcohol", "value": "10 of 10"}]}, {"smiles": "CO[C@H]1C[C@](C)(O)Cc2cc3c(c(O)c21)C(=O)c1c(O)cc2c(c1C3=O)O[C@@H]1O[C@@]2(C)[C@H](O)[C@@H](N(C)C)[C@@H]1O", "values": [{"measurement": "T/C", "setting": "dose: 0.78 mg/kg/injection, schedule: Q01DX009 (ip), vehicle: other", "value": "125 % of control"}, {"measurement": "T/C", "setting": "dose: 1.56 mg/kg/injection, schedule: Q01DX009 (ip), vehicle: other", "value": "143 and 146 % of control"}, {"measurement": "T/C", "setting": "dose: 3.12 mg/kg/injection, schedule: Q01DX009 (ip), vehicle: other", "value": "143 % of control"}, {"measurement": "T/C", "setting": "dose: 10.8 mg/kg/injection, schedule: Q04DX003 (ip), vehicle: lactic acid", "value": "145 % of control"}, {"measurement": "T/C", "setting": "dose: 18.0 mg/kg/injection, schedule: Q01DX005 (iv), vehicle: other", "value": "127 % of control"}, {"measurement": "survivor count", "setting": "dose: 18.0 mg/kg/injection, schedule: Q01DX009 (ip), vehicle: other", "value": "10 of 10"}, {"measurement": "T/C", "setting": "dose: 25.0 mg/kg/injection, schedule: Q01DX001 (ip), vehicle: water", "value": "136 % of control"}, {"measurement": "survivor count", "setting": "dose: 25.0 mg/kg/injection, schedule: Q01DX009 (ip), vehicle: other", "value": "8 of 10 and 10 of 10"}, {"measurement": "T/C", "setting": "dose: 30.0 mg/kg/injection, schedule: Q04DX003 (ip), vehicle: lactic acid", "value": "127 and 136 % of control"}, {"measurement": "survivor count", "setting": "dose: 36.0 mg/kg/injection, schedule: Q01DX001 (iv), vehicle: other", "value": "1 of 10"}, {"measurement": "survivor count", "setting": "dose: 36.0 mg/kg/injection, schedule: Q01DX005 (ip), vehicle: other", "value": "10 of 10"}, {"measurement": "survivor count", "setting": "dose: 36.0 mg/kg/injection, schedule: Q01DX005 (iv), vehicle: other", "value": "1 of 10"}, {"measurement": "survivor count", "setting": "dose: 36.0 mg/kg/injection, schedule: Q01DX009 (ip), vehicle: other", "value": "10 of 10"}, {"measurement": "survivor count", "setting": "dose: 36.0 mg/kg/injection, schedule: Q01DX009 (oral), vehicle: other", "value": "9 of 10"}, {"measurement": "survivor count", "setting": "dose: 50.0 mg/kg/injection, schedule: Q04DX003 (ip), vehicle: lactic acid", "value": "9 of 10 and 10 of 10"}, {"measurement": "survivor count", "setting": "dose: 72.0 mg/kg/injection, schedule: Q01DX001 (ip), vehicle: other", "value": "10 of 10"}, {"measurement": "survivor count", "setting": "dose: 72.0 mg/kg/injection, schedule: Q01DX001 (iv), vehicle: other", "value": "0 of 10"}, {"measurement": "survivor count", "setting": "dose: 72.0 mg/kg/injection, schedule: Q01DX005 (oral), vehicle: other", "value": "9 of 10"}, {"measurement": "survivor count", "setting": "dose: 72.0 mg/kg/injection, schedule: Q01DX009 (oral), vehicle: other", "value": "10 of 10"}, {"measurement": "survivor count", "setting": "dose: 144.0 mg/kg/injection, schedule: Q01DX001 (ip), vehicle: other", "value": "2 of 10"}, {"measurement": "survivor count", "setting": "dose: 144.0 mg/kg/injection, schedule: Q01DX001 (iv), vehicle: other", "value": "0 of 10"}, {"measurement": "T/C", "setting": "dose: 144.0 mg/kg/injection, schedule: Q01DX001 (oral), vehicle: other", "value": "130 % of control"}, {"measurement": "survivor count", "setting": "dose: 288.0 mg/kg/injection, schedule: Q01DX001 (ip), vehicle: other", "value": "0 of 10"}, {"measurement": "survivor count", "setting": "dose: 288.0 mg/kg/injection, schedule: Q01DX001 (iv), vehicle: other", "value": "0 of 10"}, {"measurement": "survivor count", "setting": "dose: 288.0 mg/kg/injection, schedule: Q01DX001 (oral), vehicle: other", "value": "10 of 10"}, {"measurement": "T/C", "setting": "[1]", "value": "125 % of control"}, {"measurement": "survivor count", "setting": "[1]", "value": "9 of 10"}, {"measurement": "survivor count", "setting": "dose: 576.0 mg/kg/injection, schedule: Q01DX001 (oral), vehicle: other", "value": "10 of 10"}]}, {"smiles": "Nc1cc(N)cc(Cc2ccccc2)c1", "values": [{"measurement": "survivor count", "setting": "dose: 400.0 mg/kg/injection, schedule: Q01DX009 (ip), vehicle: Klucel (hydroxypropylcellulose) (HPC)", "value": "4 of 10"}]}, {"smiles": "CCN(CC)CCOc1ccc2c(c1)C(=O)c1cc(OCCN(CC)CC)ccc1-2", "values": [{"measurement": "T/C", "setting": "dose: 36.0 mg/kg/injection, schedule: Q01DX009 (ip), vehicle: saline", "value": "132 % of control"}, {"measurement": "T/C", "setting": "dose: 60.0 mg/kg/injection, schedule: Q01DX009 (ip), vehicle: saline", "value": "128 % of control"}]}, {"smiles": "CCC1CCCCC1(O)CC", "note": "(stereo not drawn)", "values": [{"measurement": "survivor count", "setting": "dose: 200.0 mg/kg/injection, schedule: Q01DX009 (ip), vehicle: Klucel (hydroxypropylcellulose) (HPC)", "value": "10 of 10"}]}]}
